Results deposited as PubChem BioAssay AID1053209 (Peter MacCallum Cancer Centre, 2014).

Purpose: 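Follow-up of single siRNAs that strengthen doxorubicin killing in osteosarcoma cells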 (follow-up of hits)
System: mouse primary osteosarcoma cells
Knock-down reagent: single siRNA against mouse genes, 25 nM (text also states 40 nM)
Time to read-out: about 120 h (48 h before drug, then 72 h with drug)
Treatment: doxorubicin 100 nM (about IC30-40), added 48 h after transfection, for 72 h
Detection: 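ATP-based luminescent viability, with or without doxorubicin, relative to non-targeting control NT1, mean of two replicates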
Direction: viability with doxorubicin, vs NT1: higher = more viable cells under doxorubicin; viability ratio, doxorubicin over no drug: higher = less sensitisation to doxorubicin; viability without drug, vs NT1: higher = more viable cells without drug
Rule for the call: 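Counted as active (class LC dox) if viability falls to 0.7 of NT1 or below under doxorubicin but stays within 0.7 to 1.1 without drug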
Shown is an unselected part of about 1,580 reagents tested. In the full data, 207 (13%) are marked active. 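Rows are single siRNAs; four siRNAs per gene were tested, a gene counting as confirmed only when at least two agree.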 Reagents against one gene are numbered here.

| Target gene | reagent | combined effect class | viability with doxorubicin, vs NT1 | viability ratio, doxorubicin over no drug | viability without drug, vs NT1 | activity call |
| --- | --- | --- | --- | --- | --- | --- |
| Smc1a (GeneID 24061) | 1 | normal viability with and without drug | 0.78 | 0.91 | 0.86 | inactive |
| Smc1a (GeneID 24061) | 2 | low viability only with doxorubicin; normal without drug | 0.64 | 0.77 | 0.83 | active |
| Smc1a (GeneID 24061) | 3 | low viability only with doxorubicin; normal without drug | 0.61 | 0.69 | 0.88 | active |
| Smc1a (GeneID 24061) | 4 | normal viability with and without drug | 0.84 | 0.97 | 0.87 | inactive |
| 2210016L21Rik (GeneID 72357) | 1 | normal viability with and without drug | 0.95 | 0.95 | 1 | inactive |
| 2210016L21Rik (GeneID 72357) | 2 | low viability only with doxorubicin; normal without drug | 0.48 | 0.57 | 0.84 | active |
| 2210016L21Rik (GeneID 72357) | 3 | normal viability with and without drug | 0.99 | 0.98 | 1.01 | inactive |
| 2210016L21Rik (GeneID 72357) | 4 | normal viability with and without drug | 0.98 | 1.05 | 0.93 | inactive |
| Usp4 (GeneID 22258) | 1 | low viability only with doxorubicin; normal without drug | 0.64 | 0.71 | 0.9 | active |
| Usp4 (GeneID 22258) | 2 | normal viability with and without drug | 1.04 | 1.01 | 1.03 | inactive |
| Usp4 (GeneID 22258) | 3 | high viability only without drug | 1.04 | 0.92 | 1.13 | inactive |
| Usp4 (GeneID 22258) | 4 | normal viability with and without drug | 0.82 | 0.86 | 0.95 | inactive |
| Cnn1 (GeneID 12797) | 1 | low viability only with doxorubicin; normal without drug | 0.65 | 0.8 | 0.81 | active |
| Cnn1 (GeneID 12797) | 2 | normal viability with and without drug | 0.98 | 0.93 | 1.05 | inactive |
| Cnn1 (GeneID 12797) | 3 | low viability with and without drug | 0.46 | 0.92 | 0.5 | inactive |
| Cnn1 (GeneID 12797) | 4 | normal viability with and without drug | 0.9 | 1.02 | 0.88 | inactive |
| Rps3 (GeneID 27050) | 1 | low viability with and without drug | 0.28 | 0.93 | 0.3 | inactive |
| Rps3 (GeneID 27050) | 2 | low viability only with doxorubicin; normal without drug | 0.6 | 0.81 | 0.74 | active |
| Rps3 (GeneID 27050) | 3 | low viability with and without drug | 0.21 | 0.75 | 0.28 | inactive |
| Rps3 (GeneID 27050) | 4 | low viability with and without drug | 0.29 | 1.07 | 0.27 | inactive |
| Mrps16 (GeneID 66242) | 1 | normal viability with and without drug | 1.04 | 1.13 | 0.92 | inactive |
| Mrps16 (GeneID 66242) | 2 | normal viability with and without drug | 0.95 | 0.99 | 0.96 | inactive |
| Mrps16 (GeneID 66242) | 3 | normal viability with and without drug | 0.9 | 1.05 | 0.86 | inactive |
| Mrps16 (GeneID 66242) | 4 | normal viability with and without drug | 0.76 | 0.85 | 0.89 | inactive |

Laid out differently: results already given
2210016L21Rik (GeneID 72357) #2: combined effect class = low viability only with doxorubicin; normal without drug; viability with doxorubicin, vs NT1 = 0.48; viability ratio, doxorubicin over no drug = 0.57; viability without drug, vs NT1 = 0.84; activity call = active
2210016L21Rik (GeneID 72357) #3: combined effect class = normal viability with and without drug; viability with doxorubicin, vs NT1 = 0.99; viability ratio, doxorubicin over no drug = 0.98; viability without drug, vs NT1 = 1.01; activity call = inactive
